Measured values from doi:10.1101/2020.05.11.089656.

By UniProt entry, the sequences of proteins in these tests, tags left out.
UniProt P46940: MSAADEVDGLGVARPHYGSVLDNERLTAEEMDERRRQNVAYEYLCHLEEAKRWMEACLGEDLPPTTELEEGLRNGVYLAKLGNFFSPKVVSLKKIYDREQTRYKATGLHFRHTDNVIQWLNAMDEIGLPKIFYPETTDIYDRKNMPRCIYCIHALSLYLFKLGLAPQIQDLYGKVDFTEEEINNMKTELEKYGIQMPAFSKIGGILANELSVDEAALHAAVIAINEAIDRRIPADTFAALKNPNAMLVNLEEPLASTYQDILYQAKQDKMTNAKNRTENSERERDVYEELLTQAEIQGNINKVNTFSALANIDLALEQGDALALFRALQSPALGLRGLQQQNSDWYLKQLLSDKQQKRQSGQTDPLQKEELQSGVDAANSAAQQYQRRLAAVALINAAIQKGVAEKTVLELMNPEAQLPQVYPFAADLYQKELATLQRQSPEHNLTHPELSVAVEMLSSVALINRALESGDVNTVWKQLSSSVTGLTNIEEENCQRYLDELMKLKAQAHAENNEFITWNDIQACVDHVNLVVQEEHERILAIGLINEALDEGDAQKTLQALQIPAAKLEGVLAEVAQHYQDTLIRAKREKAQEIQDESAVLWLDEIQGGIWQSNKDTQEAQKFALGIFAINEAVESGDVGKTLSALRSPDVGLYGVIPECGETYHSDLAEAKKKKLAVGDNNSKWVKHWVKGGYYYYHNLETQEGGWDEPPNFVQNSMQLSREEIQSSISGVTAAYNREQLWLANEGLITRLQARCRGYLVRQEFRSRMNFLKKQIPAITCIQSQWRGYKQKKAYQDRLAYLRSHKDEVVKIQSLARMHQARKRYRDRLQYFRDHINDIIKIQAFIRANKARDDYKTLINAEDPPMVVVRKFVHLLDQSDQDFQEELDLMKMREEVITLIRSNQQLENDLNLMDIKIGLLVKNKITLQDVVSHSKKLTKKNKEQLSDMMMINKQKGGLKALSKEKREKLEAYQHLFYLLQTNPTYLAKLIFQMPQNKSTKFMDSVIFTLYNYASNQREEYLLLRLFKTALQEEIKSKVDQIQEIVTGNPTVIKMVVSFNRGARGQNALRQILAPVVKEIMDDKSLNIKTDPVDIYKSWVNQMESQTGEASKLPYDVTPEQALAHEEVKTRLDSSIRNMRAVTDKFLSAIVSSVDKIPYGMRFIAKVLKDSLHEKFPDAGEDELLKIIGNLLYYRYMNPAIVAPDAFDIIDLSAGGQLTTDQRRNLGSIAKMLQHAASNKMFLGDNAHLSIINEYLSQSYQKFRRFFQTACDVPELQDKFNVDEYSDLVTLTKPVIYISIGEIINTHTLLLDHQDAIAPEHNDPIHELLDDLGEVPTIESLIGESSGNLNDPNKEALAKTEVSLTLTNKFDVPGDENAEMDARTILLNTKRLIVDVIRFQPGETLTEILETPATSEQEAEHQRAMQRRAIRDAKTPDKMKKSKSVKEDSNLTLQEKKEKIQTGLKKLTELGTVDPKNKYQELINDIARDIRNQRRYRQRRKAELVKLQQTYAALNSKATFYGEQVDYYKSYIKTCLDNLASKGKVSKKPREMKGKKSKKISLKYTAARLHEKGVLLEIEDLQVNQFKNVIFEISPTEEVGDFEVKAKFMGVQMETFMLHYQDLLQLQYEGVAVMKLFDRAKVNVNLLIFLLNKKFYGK
UniProt Q16630: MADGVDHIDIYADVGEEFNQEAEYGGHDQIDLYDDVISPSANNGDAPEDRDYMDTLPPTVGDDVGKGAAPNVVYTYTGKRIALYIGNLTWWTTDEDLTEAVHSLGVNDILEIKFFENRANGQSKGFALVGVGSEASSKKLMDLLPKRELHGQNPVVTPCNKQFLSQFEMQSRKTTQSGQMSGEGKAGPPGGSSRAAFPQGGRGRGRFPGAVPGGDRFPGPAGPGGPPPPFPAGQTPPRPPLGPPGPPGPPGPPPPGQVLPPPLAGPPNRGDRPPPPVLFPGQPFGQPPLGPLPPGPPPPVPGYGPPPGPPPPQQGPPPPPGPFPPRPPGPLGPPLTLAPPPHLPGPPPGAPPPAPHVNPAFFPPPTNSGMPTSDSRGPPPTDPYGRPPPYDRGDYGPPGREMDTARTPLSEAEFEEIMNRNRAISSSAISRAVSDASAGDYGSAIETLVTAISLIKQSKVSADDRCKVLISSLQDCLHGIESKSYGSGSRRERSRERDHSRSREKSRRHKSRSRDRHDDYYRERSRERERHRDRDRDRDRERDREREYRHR
UniProt Q92841: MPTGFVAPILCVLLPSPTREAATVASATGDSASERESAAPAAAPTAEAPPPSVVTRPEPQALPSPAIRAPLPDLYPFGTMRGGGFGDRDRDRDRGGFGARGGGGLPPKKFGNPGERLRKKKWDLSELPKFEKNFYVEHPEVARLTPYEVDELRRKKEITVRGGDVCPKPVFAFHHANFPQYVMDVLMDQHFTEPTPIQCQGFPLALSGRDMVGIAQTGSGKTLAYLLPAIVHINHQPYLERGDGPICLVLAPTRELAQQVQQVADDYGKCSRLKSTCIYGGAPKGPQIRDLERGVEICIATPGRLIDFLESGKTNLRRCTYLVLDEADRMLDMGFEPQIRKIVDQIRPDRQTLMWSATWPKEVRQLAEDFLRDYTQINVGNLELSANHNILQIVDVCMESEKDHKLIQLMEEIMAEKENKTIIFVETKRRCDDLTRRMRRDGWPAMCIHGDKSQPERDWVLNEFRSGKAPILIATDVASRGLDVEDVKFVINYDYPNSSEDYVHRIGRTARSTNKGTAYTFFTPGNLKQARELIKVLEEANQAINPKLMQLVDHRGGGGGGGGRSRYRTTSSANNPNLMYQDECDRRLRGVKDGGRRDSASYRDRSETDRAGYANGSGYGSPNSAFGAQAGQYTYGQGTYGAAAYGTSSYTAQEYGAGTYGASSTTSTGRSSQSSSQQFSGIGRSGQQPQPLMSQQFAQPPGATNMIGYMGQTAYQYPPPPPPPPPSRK
UniProt Q07955: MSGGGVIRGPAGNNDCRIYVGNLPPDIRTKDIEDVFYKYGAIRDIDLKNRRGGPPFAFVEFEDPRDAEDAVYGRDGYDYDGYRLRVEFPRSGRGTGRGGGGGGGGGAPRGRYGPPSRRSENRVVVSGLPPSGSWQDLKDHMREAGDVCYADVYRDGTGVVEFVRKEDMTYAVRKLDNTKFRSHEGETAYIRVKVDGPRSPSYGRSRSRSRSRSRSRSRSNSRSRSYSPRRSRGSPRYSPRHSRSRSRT

What was measured:
[1] = target: IQGAP1 (IQ Motif Containing GTPase Activating Protein 1) (human (endogenous in NUGC4 and MKN45)) (UniProt P46940); experiment: affinity purification with mass spectrometry
[2] = target: IQGAP1 (IQ Motif Containing GTPase Activating Protein 1) (human (endogenous in NUGC4 and MKN45)) (UniProt P46940); experiment: affinity purification with mass spectrometry; remark: listed apart in the source

binding [1]: binds
Molecule: CPSF6 (from UniProt Q16630 1-551)

binding [1]: binds
Molecule: DDX17 (from UniProt Q92841 1-729)

binding [1]: binds
Molecule: SRSF1 (from UniProt Q07955 1-248)

binding [2]: binds
B1: heterogeneous nuclear ribonucleoprotein M (hnRNPM) (protein, UniProt P52272 1-730)
chain: MAAGVEAAAEVAATEIKMEEESGAPGVPSGNGAPGPKGEGERPAQNEKRKEKNIKRGGNRFEPYANPTKRYRAFITNIPFDVKWQSLKDLVKEKVGEVTYVELLMDAEGKSRGCAVVEFKMEESMKKAAEVLNKHSLSGRPLKVKEDPDGEHARRAMQKVMATTGGMGMGPGGPGMITIPPSILNNPNIPNEIIHALQAGRLGSTVFVANLDYKVGWKKLKEVFSMAGVVVRADILEDKDGKSRGIGTVTFEQSIEAVQAISMFNGQLLFDRPMHVKMDERALPKGDFFPPERPQQLPHGLGGIGMGLGPGGQPIDANHLNKGIGMGNIGPAGMGMEGIGFGINKMGGMEGPFGGGMENMGRFGSGMNMGRINEILSNALKRGEIIAKQGGGGGGGSVPGIERMGPGIDRLGGAGMERMGAGLGHGMDRVGSEIERMGLVMDRMGSVERMGSGIERMGPLGLDHMASSIERMGQTMERIGSGVERMGAGMGFGLERMAAPIDRVGQTIERMGSGVERMGPAIERMGLSMERMVPAGMGAGLERMGPVMDRMATGLERMGANNLERMGLERMGANSLERMGLERMGANSLERMGPAMGPALGAGIERMGLAMGGGGGASFDRAIEMERGNFGGSFAGSFGGAGGHAPGVARKACQIFVRNLPFDFTWKMLKDKFNECGHVLYADIKMENGKSKGCGVVKFESPEVAERACRMMNGMKLSGREIDVRIDRNA

binding [2]: binds
B2: hnRNPL (protein, UniProt P14866 1-589)
chain: MSRRLLPRAEKRRRRLEQRQQPDEQRRRSGAMVKMAAAGGGGGGGRYYGGGSEGGRAPKRLKTDNAGDQHGGGGGGGGGAGAAGGGGGGENYDDPHKTPASPVVHIRGLIDGVVEADLVEALQEFGPISYVVVMPKKRQALVEFEDVLGACNAVNYAADNQIYIAGHPAFVNYSTSQKISRPGDSDDSRSVNSVLLFTILNPIYSITTDVLYTICNPCGPVQRIVIFRKNGVQAMVEFDSVQSAQRAKASLNGADIYSGCCTLKIEYAKPTRLNVFKNDQDTWDYTNPNLSGQGDPGSNPNKRQRQPPLLGDHPAEYGGPHGGYHSHYHDEGYGPPPPHYEGRRMGPPVGGHRRGPSRYGPQYGHPPPPPPPPEYGPHADSPVLMVYGLDQSKMNCDRVFNVFCLYGNVEKVKFMKSKPGAAMVEMADGYAVDRAITHLNNNFMFGQKLNVCVSKQPAIMPGQSYGLEDGSCSYKDFSESRNNRFSTPEQAAKNRIQHPSNVLHFFNAPLEVTEENFFEICDELGVKRPSSVKVFSGKSERSSSGLLEWESKSDALETLGFLNHYQMKNPNGPYPYTLKLCFSTAQHAS

binding [2]: binds
B3: ILF3/NF90 (protein, UniProt Q12906 1-894)
chain: MRPMRIFVNDDRHVMAKHSSVYPTQEELEAVQNMVSHTERALKAVSDWIDEQEKGSSEQAESDNMDVPPEDDSKEGAGEQKTEHMTRTLRGVMRVGLVAKGLLLKGDLDLELVLLCKEKPTTALLDKVADNLAIQLAAVTEDKYEILQSVDDAAIVIKNTKEPPLSLTIHLTSPVVREEMEKVLAGETLSVNDPPDVLDRQKCLAALASLRHAKWFQARANGLKSCVIVIRVLRDLCTRVPTWGPLRGWPLELLCEKSIGTANRPMGAGEALRRVLECLASGIVMPDGSGIYDPCEKEATDAIGHLDRQQREDITQSAQHALRLAAFGQLHKVLGMDPLPSKMPKKPKNENPVDYTVQIPPSTTYAITPMKRPMEEDGEEKSPSKKKKKIQKKEEKAEPPQAMNALMRLNQLKPGLQYKLVSQTGPVHAPIFTMSVEVDGNSFEASGPSKKTAKLHVAVKVLQDMGLPTGAEGRDSSKGEDSAEETEAKPAVVAPAPVVEAVSTPSAAFPSDATAEQGPILTKHGKNPVMELNEKRRGLKYELISETGGSHDKRFVMEVEVDGQKFQGAGSNKKVAKAYAALAALEKLFPDTPLALDANKKKRAPVPVRGGPKFAAKPHNPGFGMGGPMHNEVPPPPNLRGRGRGGSIRGRGRGRGFGGANHGGYMNAGAGYGSYGYGGNSATAGYSQFYSNGGHSGNASGGGGGGGGGSSGYGSYYQGDNYNSPVPPKHAGKKQPHGGQQKPSYGSGYQSHQGQQQSYNQSPYSNYGPPQGKQKGYNHGQGSYSYSNSYNSPGGGGGSDYNYESKFNYSGSGGRSGGNSYGSGGASYNPGSHGGYGGGSGGGSSYQGKQGGYSQSNYNSPGSGQNYSGPPSSYQSSQGGYGRNADHSMNYQYR

Read-outs that look alike come from different tables or passages of the source. No constants are given. Whether binding was seen depends on the method and setting. In cells and extracts the contact can be indirect. These calls come from enrichment with a bait or labelling near it, and not all partners need be listed. One block for each molecule: values may come before it.
